In US12128041B2, “Nanoparticles for delivering drug, whose surface is modified with peptide for targeting brain cancer, preparation method thereof and use thereof” (UNIVERSITY-INDUSTRY COOPERATION GROUP OF KYUNG HEE …, priority 2020, dated 2024):
For part of these data: Part of at least one peptide drawing is inferred or uncertain, most often the ends. Some entries share one result that the patent states for a list of compounds. Where a SMILES comes first, the peptide text is derived from it.

Tests used:
[1] = tested on: HeLa, U87MG, A549 and Huh7 cells; experiment: Intracellular uptake pathway of SIWV peptide after treatment with uptake pathway inhibitors; type: cell-based, human
[2] = In vivo distribution of TAMRA-labeled SIWV peptide in healthy mice by fluorescence signal; conditions: tail vein injection

Structure (SMILES)	intracellular uptake of the SIWV peptide after caveolae inhibition ([1]; cells treated with 1 mM MβCD for 30 minutes, then SIWV peptide)	cell specificity of intracellular uptake ([1]; four cancer cell lines, U87MG overexpresses caveolin-1)	time to spread throughout the mice [2]
CC[C@H](C)[C@H](NC(=O)[C@@H](N)CO)C(=O)N[C@@H](Cc1c[nH]c2ccccc12)C(=O)N[C@H](C(=O)O)C(C)C [SIWV peptide] (H-SIWV-OH; N-terminus and C-terminus assumed)	specifically reduced	intracellular uptake specific for U87MG cells	
CN(C)c1ccc2c(-c3ccccc3C(=O)[O-])c3ccc(N(C)C)cc3[o+]c2c1 [TAMRA, tetramethylrhodamine]			≤ 1 min
